Results reported in patent US20210363269A1.
These are yes or no findings as the source states them, for the method shown. Some entries that bind do so weakly or less than the wild type.

T1: NOD mouse SIRP-α D1 domain (mouse (NOD strain))
T1 sequence: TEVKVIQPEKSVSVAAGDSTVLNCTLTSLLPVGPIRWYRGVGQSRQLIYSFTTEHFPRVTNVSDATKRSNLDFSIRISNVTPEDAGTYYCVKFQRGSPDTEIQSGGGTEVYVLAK


What follows are binders tested against T1, NOD mouse SIRP-α D1 domain (mouse (NOD strain)) (assay: SPR).

Row | binding | Binder
1 | binds | AB25c (antibody, V domains shown) VH: DVQLVESGGGVVRPGESLRLSCEASGFTFSSNAMSWVRQAPGKGLEWVAGISSGSDTYYGDSVKGRLTISRDNSKNILYLQMNSLTAEDTAVYYCARETWNHLFDYWGLGTLVTVSS VL: ALTQPASVSANPGETVEITCSGGSYSSYYYAWYQQKSPGSAPVTLIYSDDKRPSNIPSRFSGSASGSTATLTITGVRAEDEAVYFCGGYDQSSYTNPFGAGTTLTVL
2 | binds | AB21c (antibody, V domains shown) VH: DVQLVESGGGVVRPGESLRLSCAASGFTFSSNAMSWVRQAPGKGLEWLAGISAGGSDTYYPASVKGRFTISRDNSKNTLYLQMNTLTAEDTAVYYCARETWNHLFDYWGLGTLVTVSS VL: ALTQPASVSANPGETVKIACSGGDYYSYYYGWYQQKAPGSALVTVIYSDDKRPSDIPSRFSGSASGSTATLTITGVRAEDEAVYYCGGYDYSTYANAFGAGTTLTVL
3 | binds | AB66c (antibody, V domains shown) VH: DVQLVESGGGVVRPGESLRLSCAASGFTFSSYAMSWVRQAPGKGLEWLAGISAGGSDTYYIDSVKGRFTISRDNPKNSLYLQMSSLTAEDTAVYYCARETWNHLFDYWGLGTLVTVSS VL: ALTQPASVSANPGETVKITCSGGDYYSTYYAWYQQKSPGSAPVTVIHSDDKRPSDIPSRFSGSASGSAATLIITGVRVEDEAVYYCGGYDGRTYINTFGAGTTLTVL
4 | binds | AB27c (antibody, V domains shown) VH: DVQLVESGGGVVRPGESLRLSCAVSGFRFSSYAMSWVRQAPGKGLEWVSGISSGGDTYYVDSVKGRFTISRDNSKNTLYLQVNSLTAEDTAIYYCARETWNHLFDYWGLGTLVTVSS VL: ALTQPASVSADLGETVKITCSGGDSSSHYYGWYQQKSPGSAPVTVIYSDDERPSDIPSRFSGSASGSTATLTITGVRVEDEAIYYCGAYDGSTYANTFGAGTTLTVL

These binders were tested against T1, NOD mouse SIRP-α D1 domain (mouse (NOD strain)) (assay: SPR, antibody immobilised on GLC chip).

Row | binding | Binder
5 | binds | 136 variant with S12T in an otherwise all mut light chain (antibody, human IgG1, V domains shown) VH: EVQLVESGGGVVQPGRSLRLSCAASGFTFSSYDVNWVRQAPGKGLEWVSLISGSGEIIYYADSVKGRFTISRDNSKNTLYLQMNSLRAEDTAVYYCAKENNRYRFFDDWGQGTLVTVSS VL: EIVLTQSPGTLTLSPGERATLSCRASQSVYTYLAWYQQKPGQAPRLLIYGASSRATGIPDRFSGSGSGTEFTLTISSLQSEDFAVYYCQQYYDRPPLTFGGGTKVEIK
6 | binds | 136 variant with I2T in an otherwise all mut light chain (antibody, human IgG1, V domains shown) VH: EVQLVESGGGVVQPGRSLRLSCAASGFTFSSYDVNWVRQAPGKGLEWVSLISGSGEIIYYADSVKGRFTISRDNSKNTLYLQMNSLRAEDTAVYYCAKENNRYRFFDDWGQGTLVTVSS VL: ETVLTQSPGTLSLSPGERATLSCRASQSVYTYLAWYQQKPGQAPRLLIYGASSRATGIPDRFSGSGSGTEFTLTISSLQSEDFAVYYCQQYYDRPPLTFGGGTKVEIK
7 | binds | 136 variant with S22T in an otherwise all mut light chain (antibody, human IgG1, V domains shown) VH: EVQLVESGGGVVQPGRSLRLSCAASGFTFSSYDVNWVRQAPGKGLEWVSLISGSGEIIYYADSVKGRFTISRDNSKNTLYLQMNSLRAEDTAVYYCAKENNRYRFFDDWGQGTLVTVSS VL: EIVLTQSPGTLSLSPGERATLTCRASQSVYTYLAWYQQKPGQAPRLLIYGASSRATGIPDRFSGSGSGTEFTLTISSLQSEDFAVYYCQQYYDRPPLTFGGGTKVEIK
8 | binds | 136 wt (VL)/mut (VH) (antibody, human IgG1, V domains shown) VH: EVQLVESGGGVVQPGRSLRLSCAASGFTFSSYDVNWVRQAPGKGLEWVSLISGSGEIIYYADSVKGRFTISRDNSKNTLYLQMNSLRAEDTAVYYCAKENNRYRFFDDWGQGTLVTVSS VL: ETVLTQSPGTLTLSPGERATLTCRASQSVYTYLAWYQEKPGQAPRLLIYGASSRATGIPDRFSGSGSGTEFTLTISSLQSEDFAVYYCQQYYDRPPLTFGGGTKVEIK
9 | binds | 136 variant with Q38E in an otherwise all mut light chain (antibody, human IgG1, V domains shown) VH: EVQLVESGGGVVQPGRSLRLSCAASGFTFSSYDVNWVRQAPGKGLEWVSLISGSGEIIYYADSVKGRFTISRDNSKNTLYLQMNSLRAEDTAVYYCAKENNRYRFFDDWGQGTLVTVSS VL: EIVLTQSPGTLSLSPGERATLSCRASQSVYTYLAWYQEKPGQAPRLLIYGASSRATGIPDRFSGSGSGTEFTLTISSLQSEDFAVYYCQQYYDRPPLTFGGGTKVEIK
10 | binds | 136 mut/mut (antibody, human IgG1, V domains shown) VH: EVQLVESGGGVVQPGRSLRLSCAASGFTFSSYDVNWVRQAPGKGLEWVSLISGSGEIIYYADSVKGRFTISRDNSKNTLYLQMNSLRAEDTAVYYCAKENNRYRFFDDWGQGTLVTVSS VL: EIVLTQSPGTLSLSPGERATLSCRASQSVYTYLAWYQQKPGQAPRLLIYGASSRATGIPDRFSGSGSGTEFTLTISSLQSEDFAVYYCQQYYDRPPLTFGGGTKVEIK
